From ChEMBL document CHEMBL3988442, “University of Dundee, Small-Polar-MMV Screening Library” (2021).

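Whole-parasite assay of Trypanosoma brucei over 72 hours; the read-out is not stated. Tested at 30 µM. Direction is inferred from retests: higher values go with stronger inhibition. Values scatter widely below zero; nearly all retest evidence comes from the higher of the two concentrations used. About 64,000 compounds were tested under these conditions; 1.5% (about 940) showed 50% or more at least once.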

Each number is a percent effect as filed.
The controls that fix the scale are not given in the record; negative values are as filed.
Compounds were drawn at random from those tested, without regard to their results.

SMILES,effect
Cc1ccc(C(=O)N2CC[C@]3(C[C@@H](OCc4ccccn4)CO3)C2)nc1.O=C(O)C(F)(F)F.O=C(O)C(F)(F)F,-473.8
CN(CC1(C)COC1)C(=O)c1cc(-c2ccn(C)n2)nc2ccccc12,-14.58
O=C(O)C(F)(F)F.[H][C@@]12CCCO[C@]1([H])[C@H](NS(C)(=O)=O)CN(Cc1c(C)noc1C)C2,19.66
O=C(CCc1cccnc1)N(Cc1ccsc1)CC1CCCO1 (centres undefined),-1.566
Cl.Cn1ccnc1Sc1ccc(N)cn1,-0.5458
COCCCN(Cc1cnc(-c2ccccn2)nc1)C1CCN(C)CC1,-10.39
Cc1ccc2cnn(CCC(=O)NCc3c(C)nn(C)c3C)c2c1,10.62
Cc1nn(C)cc1-c1cncn1CCc1ccc2c(c1)OCCO2.Cl,-5.396
CCCOC1CCCN(C(=O)c2[nH]nc(C)c2Br)C1 (centres undefined),-22.96
O=C(O)C(F)(F)F.O=C(O)C(F)(F)F.c1nc(CN2CCC3(CC2)COCCN3CC2CC2)c[nH]1,-39.04
CC(C)c1nc(CN(C)C2CCN(Cc3nc(C4CC4)no3)C2)no1 (centres undefined),-69.45
O=C1CC(c2ccc(F)cc2)c2cnn(C3CCCC3)c2N1 (centres undefined),-7.21
CCCn1cc(-c2ccnc(NC3CCCc4ccccc43)n2)c(C)n1 (centres undefined),15.8
Cn1cnnc1C1CCCN(C(=O)c2ccc3c(c2)OCCCO3)C1 (centres undefined),5.319
CC(C)(O)CN1CCN(C(=O)C2CSc3ccccc3O2)CC1 (centres undefined),-24.34
Cc1ncc2c(n1)CN(Cc1noc(C3CC3)n1)CC2,21.22
Cc1nc(CN2CCOCC2c2[nH]ncc2C)cs1 (centres undefined),-9.991
CCCNC(=O)c1cc2c(s1)CCN2C(=O)CN(C)C.O=C(O)C(F)(F)F,-1.737
CN(C)c1ccc(C(=O)N2CCC(c3cc4ncccc4[nH]3)CC2)cc1,0.4351
CS(=O)(=O)Cc1ccc(C(=O)NCc2ccc(Cl)cc2Cl)cc1,-24.79
CN(Cc1cccnc1)C[C@H]1CC[C@@H](Cc2ccc3c(cnn3C)c2)O1,-3.695
Cc1cc(NC(=O)NCC(C)N2CCc3ccccc32)no1 (centres undefined),3.032
COC[C@H]1CCC[C@]12CN(C(=O)NCc1ccccc1)CCO2,22.41
Cc1[nH]ccc1C(=O)N1CCC2(CC1)c1nc[nH]c1CCN2S(C)(=O)=O,-35.93
O=C(O)C(F)(F)F.[H][C@@]12CN(C(=O)c3ccco3)C[C@]1([H])C(=O)N(Cc1csc(C)n1)C2,-24.35
O=C1CCC(=O)c2oc3ccccc3c2N1,-14.53
O=C(N1CCCC1)N1CCC(c2nccn2Cc2cscn2)CC1,-35.18
O=C(O)[C@H]1C[C@@H](C(=O)NCc2ccncc2)CN(Cc2ccccc2)C1,-0.4992
CCC(CC)CN1CCCn2nc(CNC(=O)COC)cc2C1,-104.6
Cc1cnc(N2CCc3c(CN(C)Cc4ccco4)cncc3C2)nc1,5.943
CN(C)CC1CN(Cc2cc(Cl)cc3cccnc23)CCO1 (centres undefined),-24.37
CC(C)c1nccc(CN2CCC(c3nc4ccccc4n3C)CC2)n1,1.017
O=S(=O)(NCC1(c2cccs2)CCOCC1)c1ccc2c(c1)OCCO2,-13.42
CC(NCc1cccs1)c1ccc(OCc2nccn2C)cc1 (centres undefined),-5.421
COCCNC(=O)Cn1cc2c(n1)c(C)nn2C,2.8
CN(Cc1nc(-c2cccnc2)no1)C(=O)c1c2c(nn1C)CCCC2,-74.61
c1cncc(CNCCc2cccs2)c1,-3.115
Cc1ccccc1-c1cncc(C2CCN(C(C)C)CC2)n1,-0.4287
Cc1cccc(CN2CCn3c(C(=O)N(C)C)cnc3C2)c1,-218.2
Cc1cc(CC(C)Nc2ncnc3cccc(F)c23)[nH]n1 (centres undefined),4.656
O=C(Nc1cccc(N2CCN(CC3CC3)CC2)c1)C1CCCO1 (centres undefined),-14.88
Cc1cnc(NC(=O)N2CCCC2)s1,14.31
Cc1ccc(CNC(=O)NC2CCCc3c2cnn3CCO)cn1 (centres undefined),1.297
O=C(c1cn(CCN2CCCCC2)nn1)N1CCSCC1,-31.56
CC(C)CSCCCNC(=O)C1CCOC1 (centres undefined),-1.445
Cc1nc(CSCCC(=O)NCCNC(=O)OC(C)(C)C)cs1,-46.05
Cc1ccc(NC(=O)[C@H]2C[C@H](C(=O)O)CN(CC3CC3)C2)cn1,-19.24
CSc1ccc(-c2nc(CN3CCC(NC(C)=O)C3)c(C)o2)cc1 (centres undefined),-7.714
Cc1cc(NC(=O)CN(CC2CCOC2)C2CC2)no1 (centres undefined),-19.47
O=C(c1cccc(NCCO)c1)N1CCOCC1,-34.63
Cn1nc(Br)c2c(NCCNc3ncccn3)ncnc21,-23.06
CCCN(C(=O)CS(=O)(=O)c1ccccc1)c1cccc(C)c1,-13.14
CN1CCc2c(C#N)c(NCC3CCCO3)n3cnnc3c2C1.Cl (centres undefined),-22.69
Cc1ncsc1CCN1CCC(N(C)Cc2ncc(C(C)C)o2)C1 (centres undefined),-21.41
CN(CC(=O)NC1CCOCC1)C1CCCN(c2cccnn2)C1 (centres undefined),-16
COCCCC1(CO)CCCN(Cc2cccc(C#N)c2)C1 (centres undefined),-37.84
O=C(CCn1cnc2cc(F)c(F)cc21)N1CCN2CCCCC2C1 (centres undefined),-18.13

6 of the entries, repeated:

SMILES,effect
O=C(O)C(F)(F)F.[H][C@@]12CN(C(=O)c3ccco3)C[C@]1([H])C(=O)N(Cc1csc(C)n1)C2,-24.35
COC[C@H]1CCC[C@]12CN(C(=O)NCc1ccccc1)CCO2,22.41
Cc1ccc(C(=O)N2CC[C@]3(C[C@@H](OCc4ccccn4)CO3)C2)nc1.O=C(O)C(F)(F)F.O=C(O)C(F)(F)F,-473.8
CN1CCc2c(C#N)c(NCC3CCCO3)n3cnnc3c2C1.Cl (centres undefined),-22.69
CN(Cc1nc(-c2cccnc2)no1)C(=O)c1c2c(nn1C)CCCC2,-74.61
Cc1ccccc1-c1cncc(C2CCN(C(C)C)CC2)n1,-0.4287